The text below walks through data of the RNAGym collection of RNA variant scans (doi:10.1126/science.aae0568).

This sample is rich in variants without activity. Where only a bound is given, the exact number is not on record here.

B1: tRNA (parent)
chain: GUUCCGUUGGCGUAAUGGUAACGCGUCUCCCUCCUAAGGAGAAGACUGCGGGUUCGAGUCCCGUACGGAACG

This data set covers variants of B1. The data set can be described thus: yeast fitness relative to wild type (ratio to wild type); higher = fitter; tRNA-Arg(CCU), competitive growth, 37 C, YPD. A digest of the protocol: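 Changes in genotype frequencies gave Darwinian fitness relative to wild type. Frequencies were read by 100-nucleotide paired-end sequencing of gene amplicons before and after pooled Saccharomyces cerevisiae strains, carrying tRNA-Arg(CCU) gene variants at the native locus, were competed in YPD at 37°C for 24 hours in six replicates. A genotype was kept only with ≥ 100 starting reads, and estimates < 0.5 were set to 0.5.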
For the variant GUUCCGUUGGCGUCAUGGUAACGCGUCUCCCUCCUAAGGAGAAGGCUGCGGGUUCGGGUCCCGUACGGAACG [A14C A45G A57G], the yeast fitness is no more than 0.5.
For the variant GUACCGUUGGCGUAAUGGUAACGCGUCUCCUUCCUAAGGAGAAGACUGCGGGUUCGUGUCCCGUACGGAACG [U3A C31U A57U], the yeast fitness amounted to 0.598.
For GUUCCGUUGGCGUAAUGGUAACGGCUCUCCCUCGUAAGGAGAAGACUGCGGGUUCGAGUCCCGUACGGAACG [C24G G25C C34G] the value was no more than 0.5.
Consider GUUCCGUUGGCGUAAUGGUAACGCGUCUCUCUCCUAAGGAGGAGACUGCGGGUUCGAAUCCCGUACGGCACG [C30U A42G G58A A69C], for which the yeast fitness was no more than 0.5.
As to GUUACGUUGGCGUAAUGGUAACGGGUCUGCCUCCUAAGGAGACGACUGCGGGAUCGAGUCCCGUACAGAACG [C4A C24G C29G A43C U53A G67A], the yeast fitness was no more than 0.5.
With GUUCCGUUGGCGUAUUGGUAACGCGUCUCCGUCCUAAGGAGAAGACUGCGGGUGCGAGUCCCGUACGGAACG [A15U C31G U54G] the figure was no more than 0.5.
GUUCCGUUGGCGUAAUGGUAACGCGUCUCCCUCAUAAGGAGAAGGCUGCGGGUUCGUGUCCCGUAUGGAACG [C34A A45G A57U C66U]: the yeast fitness was no more than 0.5.
With GUUCCGUUGGCGUUAUGGUAACGCGUCUCCCUCCUAAGGAGAAAACUGCGGGUUCGAGUCCCGUACGGAGCG [A14U G44A A70G] the figure was no more than 0.5.
Turning to GUUCCGUUGGCGUAAUGGUAACGCGUAUCCUUCCUAAGGAGAUGACUGCGGGUUCGAGUCCCGUACGGAACG [C27A C31U A43U], the yeast fitness came to 0.961.
Consider GUUCCGUUGGCGUACUGGUAACGCGUUUCCCUCCUAAGCAGAAGACUGCGGGUUCGAGUCCCGUACGGAACG [A15C C27U G39C], for which the yeast fitness is no more than 0.5.
For GUUCCGUUGGCGUAAUGGUAACGGGUCUCCCUCCUAGGGAGAAGACUGCGGGUUUGAGUCCCGUACGGAACG [C24G A37G C55U] the value was no more than 0.5; for GGUCCAUUGGCGUAAUGGUAACACGUCUGCCUCCUAAGGAGAAGACUGCGGGUUCGAGUCCCGUACGGAACG [U2G G6A G23A C29G], no more than 0.5.
With GUUCCGUUGGCGUAUUGGUAACGCGUCUUCAUCCUAGGGAGAAGACAGCGGGUUCGAGUCCCGUACGGAACG [A15U C29U C31A A37G U47A] the figure was no more than 0.5; with GUUCCGUUGGCCUAAAGGUAACGCGUCUCCCUCCUAAGGAGAAGACUGCGGGUUCGAGUGUCGUACGAAACG [G12C U16A C60G C61U G68A], no more than 0.5.
With GUUUCGUUGGCGUGAUGGUAACGCGUCUCCCUCCUAAGGAGAAGCCUGCGGGUUCGAGUCCCGUACGGAACG [C4U A14G A45C] the figure was 0.542; with GUUCCGUUGGCGUAAUGGUAACGCGUCUCCCUCCUAGGGAGAAGACUGCGGGUUCGGGUCCCGUACGGAACG [A37G A57G], 0.87.
Turning to GUUCCGUUGGCGUAAUGGUAACGCGUCCCCCUCCUAAGGAGACCACUGCGGGUUCGAGUCCCGUACGCAACG [U28C A43C G44C G68C], the yeast fitness was no more than 0.5.
For the variant GUUCCGUUGGCGUAAUCGUAACGAGUCUCCCUCCUAAGGAGAAGCCUGCGGGUUCGAGUCCCGUGCGGAACG [G17C C24A A45C A65G], the yeast fitness is no more than 0.5.
GUUCCGUUGGCGUAAUGGUAACGCGUCCCCCUGCUAAAGAGAAGACUGCGGGUUCGAGUCCUGUAGGGAGCG [U28C C33G G38A C62U C66G A70G]: the yeast fitness is no more than 0.5.
For GUUCAGUUGGCGUGAUGGUUACGCGUCUCCCUCCUACGGAGAAGACUGAGGGUUCGAGUCCCGUACGGAACG [C5A A14G A20U A37C C49A], the yeast fitness was no more than 0.5.
With GUUCCGUUGGCGUAAUGGUUACGCGUCUCCUUCCUAAGGAGAAGGCUGCGGGUUCGAGUCCCGUACGGAACG [A20U C31U A45G] the figure was no more than 0.5.
Turning to GUUUCAUUGGCGUAAUGGUAACGCGUCUCCCUCCUAAGGAGAAGACUGCGGGUUCGCGUCCCGUCCGGAACG [C4U G6A A57C A65C], the yeast fitness is no more than 0.5.
Turning to GUUCCGUUGGCGUAAUGGUAACGCGUCUCACUCCUAAGGAGAAGACUGCGGGUUCGAGUCCGGUACGGAACG [C30A C62G], the yeast fitness came out at 0.662.
With GUUCCGUUGGCGUUAUGGUAACGCGUCUGUCUCCUAAGGAGAAGACUGCGGGCGCGAGUCCCGUACGGAACG [A14U C29G C30U U53C U54G], the yeast fitness was no more than 0.5.
With GUUCCGUUGGCGUAAUGGUAUCGCGUCUCCCUCCAAAGGAGAGGACUGCGGGUUCCAGUCUCGUACGGAACG [A21U U35A A43G G56C C61U] the figure was no more than 0.5.
With GAUCCGUUGGCGUAAUGGUAACGCGUCUCCCUCCUAAGGAGAAGACUGCGGGUACGAGUCCCGUACGCAACG [U2A U54A G68C] the figure was no more than 0.5; with GUUGCGUUGGCGUAAUGGUAACGCGGCACCCUCCUAAGGAGAAGACUGCGGGUUCGAGUCCCGUACGGAACG [C4G U26G U28A], no more than 0.5.
As for GUUCCGUUGGCGUAAUGGUAACGCGUCUCCGUCUUAAGGCGAAGACUGCGGGUUCGAGUCCCGUACUGAACG [C31G C34U A40C G67U], the yeast fitness was no more than 0.5.
For GUUCCGUUGGCGUGAUGGUAACGCGUCUCCCUCCUAAGGAGAACACAGGGGGUUCGAGUCCCGUACGGAACG [A14G G44C U47A C49G] the value was no more than 0.5.
With GUUCCGUUGCCGUAAUGGUAACGCGUCUCCCUCCUAAGGAGAAGACGGCGGGUUCGAGUCCUGUUCGGAACG [G10C U47G C62U A65U] the figure was no more than 0.5; with GUUCCGUUGGUGUAUAGGUAACGCGUCUCCCUCCUACGGAGAAGACUGCGGGUUCGAGUCCCGUCCGGACCG [C11U A15U U16A A37C A65C A70C], no more than 0.5; with GUUCCGUUGGCGUAAUGGUAACGCGUCUCCCUCCUAAGGAGAAGACUGAGGGUUGGAGUCCCGUACGGAACG [C49A C55G], no more than 0.5.
For the variant GUUACGUUGGCGUAAUGGUAACCCGUCUCCCUCCUAAGGCGAAGACUGCGGGUUAGAGUCCCGUACGGUACG [C4A G23C A40C C55A A69U], the yeast fitness was no more than 0.5.
For GUUCCGUUGGCGAAAUGGUAACACGUCUCCCUCCUCAAGAGAAGACUGCGGGUUCGAGUCCCGUACGGAACG [U13A G23A A36C G38A] the value was no more than 0.5; for GUUCCGCUGGCGUAAUGGUAACGCGUCUCCCUCCUACGGAGAAGACUGCGGGUUCGAGUGCCAUUCGGACCG [U7C A37C C60G G63A A65U A70C], no more than 0.5; for GUUCCGUUGGCGUAAUGGUAACACGUCUCUCUACUAAGGACUAGGCUGCGGGUUCGAGUCCCGUACGGAGCG [G23A C30U C33A G41C A42U A45G A70G], no more than 0.5.
As to GUUCCGUUGGAGUAAUGGUAACGCGUCUCCCUCCUAAGGAGAGGACUGCGGGUCCGAGUCCCGUAGCGAACG [C11A A43G U54C C66G G67C], the yeast fitness was no more than 0.5.
